Test results reported in PubChem BioAssay AID504467 (National Center for Advancing Translational Sciences (NCATS), 2011).
Screen size: about 330,000 compounds; about 7,700 (2.3%) were called active. Inconclusive means that the source gave no clear call. Such entries were picked first, then a sample of the others. Calls come from the whole dose curve; as a rule, active = well fitted inhibition curve with a large enough effect; inconclusive = small, poorly fitted or top-dose-only effect, or effect the other way; inactive = flat fitted curve, though single readings scatter. Potencies beside an inconclusive call are fits to weak or partial responses and may not hold up.

Test: qHTS screen for small molecules that inhibit ELG1-dependent DNA repair in human embryonic kidney (HEK293T) cells expressing luciferase-tagged ELG1; note: nearly all actives have a fitted effect of over 55% in size
Settings: HEK293T ELG1-luciferase reporter, luminescence, 16 h, DNA damage induced by 5-fluorouridine; activity change, negative = inhibition: at 46.1 µM (top of the series)
Procedure, shortened: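 HEK293T cells expressing luciferase-tagged ELG1 (2,000/well) received 5-Fluorouridine plus compound or DMSO for 16 hr at 37 °C. Luciferase was read by ONE-Glo luminescence after 30 min at room temperature.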
% is set by controls: 0 for no effect and ±100 for the full control effect; potency is the fitted concentration of half-maximal effect.

Row | Compound | Potency | activity change, negative = inhibition
1 | O=C(Cc1ccccc1)N1CCN=C1SCc1cccc([N+](=O)[O-])c1 | inconclusive: 29.1 µM [inhibitor, partial curve, poor fit] | 
2 | COc1ccc(CN2CCN(Cc3cccc(F)c3)CC2)cc1OC |  | inactive: -0.0597%
3 | O=C(COc1ccccc1)Nc1ccc(S(=O)(=O)N2CCCCCC2)cc1 |  | inactive: -24.8%
4 | C/C(=N\Nc1ccc(C(=O)O)cc1)c1nc2ccccc2n1C | inconclusive: 2.59 µM [activator, full curve, poor fit] | 
5 | CCOc1ccc(C(=O)Nc2cccc(-n3cnnn3)c2)cc1OCC | inconclusive: 18.3 µM [inhibitor, single point] | 
6 | Oc1c(C(c2ccccn2)N2CCC(Cc3ccccc3)CC2)cc(Cl)c2cccnc12 (stereo unspecified) | inconclusive: 29.1 µM [activator, single point] | 
7 | CCOC(=O)c1ccc(N/N=C/c2cc(Br)cc([N+](=O)[O-])c2O)cc1 |  | inactive: -1.28%
8 | O=C(Nc1nc2ccsc2c(=O)s1)C1CCC1 | inconclusive: 20.6 µM [activator, partial curve] | 
9 | CC1=C(C(=O)OC(C)C)C(c2ccccc2)NC(=O)N1C (stereo unspecified) |  | inactive: -2.12%
10 | CC(C)Cn1c(SCC(=O)N2CCCCC2)nc2ccccc2c1=O | inconclusive: 25.9 µM [inhibitor, single point] | 
11 | S=c1[nH]nc(-c2cccnc2)o1 |  | inactive: 1.62%
12 | CC1CCCC(C)N1C(=O)COC(=O)c1c[nH]c2ccccc12 (stereo unspecified) | inconclusive: 23.1 µM [activator, partial curve] | 
13 | COc1cccc(C(=O)Nc2ccc(S(=O)(=O)Nc3nccc(C)n3)cc2)c1 |  | inactive: -5.51%
14 | Cc1ccc(C)c(N2CCN(C(=O)Nc3ccc4c(c3)N(C)C(=O)CS4)CC2)c1 | active: 6.51 µM | 
15 | CCC1(C(=O)c2ccccc2)C2c3cc(Br)ccc3OC(=O)C21C(=O)N1CCOCC1 (stereo unspecified) |  | inactive: -8.83%
16 | COc1ccc(OCCCC(=O)Nc2ccc(OC)c(S(=O)(=O)N3CCOCC3)c2)cc1 | inconclusive: 13 µM [inhibitor, partial curve, poor fit] | 
17 | CCNC(=S)N(CCc1c(C)[nH]c2ccc(F)cc12)Cc1cccnc1 |  | inactive: -26.3%
18 | O=C(COC(=O)Cc1ccccc1[N+](=O)[O-])Nc1nnc(-c2ccccc2)o1 |  | inactive: 14.2%
19 | Cc1ccc(S(=O)(=O)NC23CC4CC(CC(C4)C2)C3)cc1 |  | inactive: 5.56%
20 | Cc1cccc(Nc2ccc(C(=O)N3CCOCC3)cn2)c1 | inconclusive: 8.2 µM [activator, partial curve] | 
21 | COc1ccc(C/C(C)=N/NC(=S)Nc2ccccc2F)cc1 | inconclusive: 20.6 µM [activator, partial curve] | 

From no. 13 to 14, as listed above:
Row | Compound | Potency | activity change, negative = inhibition
13 | COc1cccc(C(=O)Nc2ccc(S(=O)(=O)Nc3nccc(C)n3)cc2)c1 |  | inactive: -5.51%
14 | Cc1ccc(C)c(N2CCN(C(=O)Nc3ccc4c(c3)N(C)C(=O)CS4)CC2)c1 | active: 6.51 µM | 
